Results taken from patent US20150306232A1, “HYDROGELATORS COMPRISING D-AMINO ACIDS” (BRANDEIS UNIVERSITY, priority 2012, published 2015).
Not every detail of the peptide structures is certain; ends, links or a residue may be inferred. Non-standard residues stand in square brackets, D forms with d. Residues, ends and D or L forms follow the SMILES beside them. *: point of attachment. Paclitaxel(2'-O-succinyl) = CC(=O)O[C@H]1C(=O)[C@@]2(C)[C@H]([C@H](OC(=O)c3ccccc3)[C@]3(O)C[C@H](OC(=O)[C@H](OC(=O)CCC(=O)*)[C@@H](NC(=O)c4ccccc4)c4ccccc4)C(C)=C1C3(C)C)[C@]1(OC(C)=O)CO[C@@H]1C[C@@H]2O; d(pY) = N[C@H](Cc1ccc(OP(=O)(O)O)cc1)C(=O)O; Acetyl(2-naphthyl) = O=C(Cc1ccc2ccccc2c1)*

Assays:
[1] = enzymatic hydrogelation with ALP; assay type: physicochemical
Method: To investigate the enzymatic hydrogelation of the D-peptidic precursor 11b, we prepared a series of hydrogels formed by using ALP to treat 11b at different concentrations. After dissolving 1.0, 2.0, 3.0, 4.0, and 5.0 mg of 11b in 0.5 mL of water (pH 7.6), respectively, we obtained clear solutions of 11b with different concentrations. The treatment of the solutions of 11b with ALP (1.0 U/mL) afforded the molecules of hydrogelator 12b, which are less soluble than 11b and thus self-assemble in water to form hydrogels when the concentrations of 12b are sufficient.
All the compounds were dissolved in de-ionized water. We then adjusted pH of the solutions carefully adding 1 M of NaOH and 1 M of HCl and measured the values by pH paper (pH 6.0-8.0). After prepared clear weakly basic solutions (pH 7.6 or 7.4), we then formed the hydrogels by adding enzymes (alkaline phosphatase).

4T1-luciferase cells = assay: in vivo evaluation of antitumor activity; set-up: species or system Balb/c mice; details: hydrogel, single intratumoral injection 10 mg/kg at day 0
Method: After inoculating female Balb/c mice with 2×10^5 of 4T1-luciferase cells in the mammary fat pad, we allow tumors grow until their sizes reach about 500 mm^3, and randomly divide them into different treatment groups: (1) intravenous injections of PBS vehicle control; (2) intravenous injection of 4×10 mg/kg Taxol® every other day from day 0 for indicated times; (3) a single intratumoral injection of 10 mg/kg Taxol containing hydrogels in 40 μL volume. With the treatments of 16 (Taxol; paclitaxel), 20a, 20b, or PBS buffer (control) for 14 days, we monitor the relative tumor sizes (calculated by the formula: tumor volume=length×width×(Length+Width)/2) and relative weights of mice every two days. […] Therefore, we have to divide 40 mg/kg of 16 into four injections with each injection of 10 mg/kg. […] This promising result warrants further investigation of the D-peptidic hydrogels of Taxol on animal models.
Female Balb/c mice were incubated with 2×10^5 4 T1-luciferase cells in the mammary fat pad. Tumor growth was monitored every other day and the tumor volume was calculated by the formula: length×width×(Length+Width)/2. Once tumors size reached around 500 mm^3, we randomly divided mice into different treatment groups. […] Mice weight was monitored after receiving treatment and presented as relative weight (%).

Row | SMILES | concentration for enzymatic hydrogelation [1] | relative tumor size at day 14 vs PBS control (4T1-luciferase cells) | relative tumor size vs control (4T1-luciferase cells)
1 | CC(=O)O[C@H]1C(=O)[C@@]2(C)[C@H]([C@H](OC(=O)c3ccccc3)[C@]3(O)C[C@H](OC(=O)[C@H](OC(=O)CCC(=O)NCCCC[C@@H](NC(=O)[C@@H](Cc4ccccc4)NC(=O)[C@@H](Cc4ccccc4)NC(=O)Cc4ccc5ccccc5c4)C(=O)N[C@H](Cc4ccc(OP(=O)(O)O)cc4)C(=O)O)[C@@H](NC(=O)c4ccccc4)c4ccccc4)C(C)=C1C3(C)C)[C@]1(OC(C)=O)CO[C@@H]1C[C@@H]2O [19b, 2-(Naphthalen-2-yl)acetyl-(D)-Phe-(D)-Phe-(D)-Lys(Taxol)-(D)-Tyr phosphate] ({Acetyl(2-naphthyl)}-[dF][dF][dK](Paclitaxel(2'-O-succinyl))[d(pY)]-OH) | up to 1.8 wt % |  | 
2 | CC(=O)O[C@H]1C(=O)[C@@]2(C)[C@H]([C@H](OC(=O)c3ccccc3)[C@]3(O)C[C@H](OC(=O)[C@H](OC(=O)CCC(=O)NCCCC[C@@H](NC(=O)[C@@H](Cc4ccccc4)NC(=O)[C@@H](Cc4ccccc4)NC(=O)Cc4ccc5ccccc5c4)C(=O)N[C@H](Cc4ccc(O)cc4)C(=O)O)[C@@H](NC(=O)c4ccccc4)c4ccccc4)C(C)=C1C3(C)C)[C@]1(OC(C)=O)CO[C@@H]1C[C@@H]2O [20b] ({Acetyl(2-naphthyl)}-[dF][dF][dK](Paclitaxel(2'-O-succinyl))[dY]-OH) |  | statistically smaller than the control | reduce the relative tumor sizes on the mice more significantly than those of the controls after day 2
